Results of single-concentration screens

The filed quantity is “Percent Effect” (%).
The record does not define 0% and 100%; most values in the screen are far below 50% and negative numbers occur (in some assays of this library far below -100).
This is an unselected part of the compounds tested.
Two or more numbers in one place are separate tests of the same structure; such repeats can differ widely.
A dash means the value is not listed here; it may have been measured.

A: 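Assay of Toxoplasma gondii numbers, read through their beta-galactosidase reporter with a colour substrate. Compounds at 10 µM. The record gives no direction; the compounds picked for IC50 retests had high values, so higher reads as fewer parasites. Size under these conditions: about 67,000 compounds, about 260 of them at 50% or above in at least one test.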
B: 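Whole-parasite assay of Trypanosoma brucei over 72 hours; the read-out is not stated. Tested at 30 µM. Direction is inferred from retests: higher values go with stronger inhibition. Values scatter widely below zero; nearly all retest evidence comes from the higher of the two concentrations used. Of about 64,000 compounds tested this way, about 940 (1.5%) reached 50% or more in at least one test.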
C: 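Cell assay of Leishmania donovani living inside macrophages; the read-out is not stated. Tested at 30 µM. Direction is inferred from retests: higher values go with stronger inhibition. Size under these conditions: about 69,000 compounds, about 1,000 of them at 50% or above in at least one test.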

| SMILES | A | B | C |
|---|---|---|---|
| `Cc1nn2c(N3CCCC(C#N)C3)cc(-c3ccccc3)nc2c1C` (centres undefined) | -14.68 | -36.3 | -62.76 |
| `[H][C@@]12CN(S(C)(=O)=O)C[C@]1([H])OCC(=O)N2CC1CC1` | -2.754 | -7.713 | 25.58 |
| `CCOc1ncc(NC(=O)c2ccccn2)c(OCC)n1` | 9.395 | 6.445 | -0.5632 & 23.14 |
| `CN1CCCC(Cc2cncc(C(=O)N3CCOCC3)c2)C1` (centres undefined) | -8.964 | -14.67 | 11.88 |
| `CCSc1cc(C(=O)NCCC(=O)Nc2ccccn2)ccn1` | 8.758 | -40.99 | 38.91 |
| `COCC(=O)NCCC(=O)N1CCN(S(=O)(=O)c2cccc(Br)c2)CC1` | -1.007 | -18.13 | 19.42 |
| `Cc1nn(C)c2c(NCc3ccncc3)nc(C3CC3)nc12` | 23.92 | - | -43.55 |
| `Cc1cccc2[nH]c(C3CCN(C(=O)c4cnc(O)cc4O)CC3)nc12` | -10.38 | -36.32 | -19.76 |
| `O=C(O)COc1ccc(CN2CCCC(Cc3cccnc3)C2)cc1` (centres undefined) | -2.374 | -12.06 | 9.056 |
| `O=C(O)C(F)(F)F.[H][C@@]12C[C@@H](Oc3cccc(F)c3)CN1CCN(C(=O)c1cnccn1)C2` | 1.97 | 24.04 | 19.48 |
| `Cc1cc(NCc2csc(-c3ccco3)n2)ccc1C(N)=O` | 0.4813 | -12.72 | 9.735 |
| `O=C(O)C(F)(F)F.[H][C@@]12CCN(c3ncccn3)C[C@@]1([H])[C@H](C(=O)NCc1ccco1)CCO2` | -7.471 | -20.9 | 25.78 |
| `COCCN1C[C@@H](C)[C@@]2(COCCN(C(=O)c3ccoc3)C2)C1` | 5.665 | 3.008 | -14.06 |
| `CN1CC(c2n[nH]c(=O)n2-c2cccc(Cl)c2)CC1=O` (centres undefined) | 0.183 | -72.01 | 46.1 |
| `Cc1cc(-c2ccccc2Cl)nc(N)n1` | -6.011 | 21.46 | -2.325 |
| `Cc1oc(-c2nc(C#N)c(NC(C)C)o2)cc1S(=O)(=O)N1CCCCC1` | 4.61 | -33.24 | -16.49 |
| `CCOCC1CN(Cc2cnn(C)c2)Cc2nn(C)cc21.O=C(O)C(F)(F)F` (centres undefined) | -31.34 | -5.374 | -19.77 |
| `COc1ccc2nc(C3CC3)cc(C(=O)NCc3ncnn3C)c2c1` | -1.079 | -33.88 | -11.18 |
| `CC(C)OCc1ccccc1CNC(=O)C(C)S(=O)(=O)C(C)C` (centres undefined) | -4.537 | -22.41 | 30.04 |
| `O=C(Cc1cccc(O)c1)NCCNc1nccc(C(F)(F)F)n1` | -11.8 | -18.31 | 18 |
| `Cc1cccc2c1N(C)C(=O)C21CC(=O)Nc2c1cnn2C(C)(C)C` (centres undefined) | -16.17 | -37.6 | -18.37 |
| `[H][C@@]12COC[C@]1(CNS(C)(=O)=O)CN(C(=O)CCc1ccccc1)C2` | 0.2257 | -45.61 | 4.799 & 17.01 |
| `Cc1c(CNC(=O)NCc2cccc(-n3cncn3)c2)cnn1C` | -5.507 | -25.5 | 6.485 |
| `O=C(CN1C(=O)CCC1=O)NCCc1nc(C2CC2)cc(C(F)(F)F)n1` | -10.92 | -18.17 | -16.85 |
| `O=C1CN(c2ccc(CNC(=O)Nc3nnc(C4CC4)s3)cc2)CCN1` | 15.12 | -38.06 | 17.21 |
| `Cc1ccsc1C(=O)N1CCc2ncnc(NC(C)C)c2CC1` | -9.824 | 42.98 | 11.74 |
| `CCCc1noc(C2CC(=O)N(Cc3ccccc3)C2)n1` (centres undefined) | -0.569 | 7.979 | 62.8 |
| `COCCCNS(=O)(=O)c1cc(C)sc1C` | 2.769 | 1.881 | -17.24 |
| `Cc1cc(C(=O)N2CCCC2)ccc1NCCO` | -9.964 | -12.13 | 25.69 |
| `CCN(CC)C(=O)N1CCN(CCc2ccncc2)CC1` | -2.101 | -35.49 | 29.81 |
| `CC(C)CCNC(=O)c1ccc(Cl)c(NS(C)(=O)=O)c1` | -2.17 | -17.31 | 6.444 |
| `CCC(Cn1ccnc1)n1cnc2scc(C)c2c1=O` (centres undefined) | 28.43 | -35.59 | -16.59 |
| `Cn1cc(C(=O)CC2CCCN2C(=O)c2ccc3[nH]ncc3c2)cn1` (centres undefined) | 6.185 | -37.18 | 2.163 |
| `Cc1ncsc1CCN(C)C(=O)c1c(O)cccc1O` | -0.1655 | 2.416 | -5.43 |
| `[H][C@@]12OCCN(C(=O)c3ccc(C)o3)[C@@]1([H])CC[C@H]2OC` | -3.88 | -32.66 | -6.215 |
| `Cc1ccc(C2CSCCN2C(=O)c2cccnc2)cc1` (centres undefined) | 0.3644 | - | 2.695 |
| `COc1ccc(CN(CCC#N)CCN2CCOCC2)cc1OC` | -16.82 | -6.267 | -38.46 |
| `CN(CCc1ccccn1)C(=O)C(c1cccnc1)N1CCOCC1` (centres undefined) | 1.855 | 3.012 | 39.83 |
| `O=C(O)[C@@H]1CN(C(=O)Cc2ccccc2Cl)C[C@H]1C1CC1` | 18.74 | -46.33 | -30.94 |
| `CN1CC(Oc2ccc(Cl)cc2)=NC(SCC(=O)Nc2ccccc2)=N1` | -4.407 | -41.32 | 8.784 |
| `O=C(O)C(F)(F)F.O=C(O)C(F)(F)F.O=C(O)C(F)(F)F.[H][C@]12CCN(Cc3cccnc3)[C@@]1([H])CC[C@H](COCc1ccccn1)O2` | 12.19 | -21.15 | 30.13 |
| `CC(C)c1cc(C(=O)NCCc2nc(-c3ccncc3)n[nH]2)[nH]n1` | -12.27 | 1.074 | -0.4105 |
| `CC(=O)N(C)c1nc(CN2CCOC(Cn3cc(C)cn3)C2)cs1` (centres undefined) | -4.666 | -32 | 28.2 |
| `O=C1CN(Cc2nnc(-c3ccc(Cl)cc3)o2)CCN1` | -6.229 | -23.38 | 22.41 |
| `O=S(=O)(NCCNc1ccc(-n2cccc2)nn1)c1ccccc1` | 3.732 | 12.81 | -32.38 & -5.84 |
| `O=C(O)C(F)(F)F.[H][C@@]12COC[C@@H](C(=O)N3CCOCC3)[C@]1([H])CN(C1CCOCC1)C2` | -4.433 | 5.603 | 25.23 |
| `Cc1ccc(NC2CCN(C(=O)c3c(C)noc3C)CC2)nn1` | -4.234 | -5.32 | 6.526 |
| `COc1c(C)cnc(CNC(=O)CCOCc2ccccc2)c1C` | -3.017 | -17.64 | 13.33 |
| `Cc1ccc(NC(=O)C2CSCN2C(=O)c2cnn(C)c2)c(C)c1` (centres undefined) | -2.03 | -17.33 | 11.5 |
| `CCSc1ccc(C(=O)N2CCCC2C(=O)N2CCOCC2)cn1` (centres undefined) | 6.673 | -0.3507 | -29.5 |
| `COc1ccccc1C(O)CNC(=O)Nc1ccccn1` (centres undefined) | -38.05 | - | 4.524 |

From ChEMBL document CHEMBL3988442, “University of Dundee, Small-Polar-MMV Screening Library” (2021).